Assay results reported in patent US20160120877A1, “PHARMACEUTICAL COMPOSITIONS FOR SUSTAINED DELIVERY OF BENZODIAZEPINE ANTAGONISTS” (priority 2010, published 2016).
The source gives many values for each of these; only a part stands here.

Test: Dialysis diffusion: effect of sample concentration
Type: physicochemical
Procedure: Dialysis tubing cellulose membrane was cut into approximately 8 cm lengths, washed with hot water for 3 hours. Tubing was then treated with 0.3% (w/v) solution of sodium sulfide at 80° C. for 1 minute, washed with hot water (60° C.) for 2 minutes and followed by acidification with 0.2% sulfuric acid. Tubing was then rinsed with hot water to remove the acid. Test formulations were added, the tubing closed with nylon closures and placed in the dialysate. At various time periods, the dialysate was sampled and the flumazenil released measured by HPLC assay.
Experiments were conducted to test the effect of sample concentration on diffusion rate.
As described in 1.1 with 600 ml of phosphate buffer pH 4.0 as dialysate.
A=0.25 g of a 1.5% flumazenil solution in NMP
B=0.25 g of a 3.0% flumazenil solution in NMP
C=0.25 g of a 4.5% flumazenil solution in NMP

% flumazenil released (sample A1 (0.25 g of 1.5% solution in NMP), 4 h): 101.2% | % flumazenil released (sample A1 (0.25 g of 1.5% solution in NMP), 5 h): 101.4% | % flumazenil released (sample A1 (0.25 g of 1.5% solution in NMP), 6 h): 101.3% | % flumazenil released (sample A1 (0.25 g of 1.5% solution in NMP), 24 h): 100.1% | % flumazenil released (sample A2 (0.25 g of 1.5% solution in NMP), 4 h): 101.3% | % flumazenil released (sample A2 (0.25 g of 1.5% solution in NMP), 5 h): 101.0% | % flumazenil released (sample A2 (0.25 g of 1.5% solution in NMP), 6 h): 101.2% | % flumazenil released (sample A2 (0.25 g of 1.5% solution in NMP), 24 h): 100.0% | % flumazenil released (sample B1 (0.25 g of 3.0% solution in NMP), 3 h): 83.4% | % flumazenil released (sample B1 (0.25 g of 3.0% solution in NMP), 4 h): 89.9% | % flumazenil released (sample B1 (0.25 g of 3.0% solution in NMP), 5 h): 94.6% | % flumazenil released (sample B1 (0.25 g of 3.0% solution in NMP), 6 h): 97.9% | % flumazenil released (sample B1 (0.25 g of 3.0% solution in NMP), 24 h): 99.6% | % flumazenil released (sample B2 (0.25 g of 3.0% solution in NMP), 3 h): 86.9% | % flumazenil released (sample B2 (0.25 g of 3.0% solution in NMP), 4 h): 92.9% | % flumazenil released (sample B2 (0.25 g of 3.0% solution in NMP), 5 h): 96.6% | % flumazenil released (sample B2 (0.25 g of 3.0% solution in NMP), 6 h): 99.1% | % flumazenil released (sample B2 (0.25 g of 3.0% solution in NMP), 24 h): 99.2% | % flumazenil released (sample C1 (0.25 g of 4.5% solution in NMP), 3 h): 52.3% | % flumazenil released (sample C1 (0.25 g of 4.5% solution in NMP), 4 h): 63.4% | % flumazenil released (sample C1 (0.25 g of 4.5% solution in NMP), 5 h): 72.5% | % flumazenil released (sample C1 (0.25 g of 4.5% solution in NMP), 6 h): 80.7% | % flumazenil released (sample C1 (0.25 g of 4.5% solution in NMP), 24 h): 100.4% | % flumazenil released (sample C2 (0.25 g of 4.5% solution in NMP), 3 h): 54.9% | % flumazenil released (sample C2 (0.25 g of 4.5% solution in NMP), 4 h): 64.3% | % flumazenil released (sample C2 (0.25 g of 4.5% solution in NMP), 5 h): 71.7% | % flumazenil released (sample C2 (0.25 g of 4.5% solution in NMP), 6 h): 78.5% | % flumazenil released (sample C2 (0.25 g of 4.5% solution in NMP), 24 h): 100.3%
Structure (SMILES): CCOC(=O)c1ncn2c1CN(C)C(=O)c1cc(F)ccc1-2 [flumazenil, ethyl 8-fluoro-5,6-dihydro-5-methyl-6-oxo-4H-imidazo[1,5-a](1,4)benzodiazepine-3-carboxylate]
